Measurements from US11905230B2, “Phenoxyacetic acid derivatives, preparation method thereof and use thereof as medicament” (CHINA PHARMACEUTICAL UNIVERSITY, priority 2017, dated 2024).
At least one structure is not confirmed: it was looked up by name or label, or the drawing left a doubt.

System: normal mice
Assay: Oral glucose tolerance test (OGTT) in normal mice
Type: in vivo, Kunming mice
Conditions: 20 mg/kg
Method: Experimental example 2 In vivo hypoglycemic activity of the compounds of the present invention can be determined by using an assay system as described below:
The mice were fasted for 12 hours before experiment and water was taken freely, each group was administrated by gavage, blood was taken from the tail, and the blood glucose level was measured (recorded as −30 min).

SMILES: COc1ccc(-c2cccc(CNc3ccc(OCC(=O)O)c(F)c3)c2)c(C)c1 [Compound I-19]
- effect on oral glucose tolerance in mice (in words): significantly improve oral glucose tolerance
